Reference: PubChem BioAssay AID686943 (Drosophila RNAi Screening Center, 2013)
Aim: 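Fly genes whose loss alters ERK activation after insulin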 (primary screen). System: Drosophila S2R+ haemocyte-like cells expressing YFP-tagged ERK (Rolled). Knock-down reagent: long dsRNA against Drosophila genes. Challenge: insulin stimulation versus unstimulated cells; dose and duration not given. Measured: 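Per-plate z-scores of phospho-ERK immunostaining normalised to YFP-tagged ERK, measured with and without insulin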. Direction: replicate 1, z-score of dpERK with insulin and replicate 2, z-score of dpERK with insulin: higher = more active ERK per ERK-YFP after insulin; replicate 1, z-score of dpERK under basal conditions: higher = more basal active ERK per ERK-YFP; replicate 1, z-score of ERK-YFP with insulin: higher = more YFP-tagged ERK signal.
The deposit covers about 23,000 reagents; this is a random part of those that have a named target and a result. 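Extra replicates exist only for a retested subset of genes; insulin dose and duration not given; both raised and lowered dpERK matter.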 Not given: the amount of reagent, the time to read-out.

The first 6 entries, to show the layout:
| target gene | PubChem SID | replicate 1, z-score of dpERK with insulin | replicate 2, z-score of dpERK with insulin | replicate 1, z-score of dpERK under basal conditions | replicate 1, z-score of ERK-YFP with insulin |
| --- | --- | --- | --- | --- | --- |
| Syx17 (Syntaxin 17) | SID104188383 | 0.27 | 0.91 | -0.01 | 0.14 |
| CG3529 | SID104190161 | 0.42 | 0.82 | -0.2 | -0.09 |
| Hsp67Bc (Heat shock gene 67Bc) | SID104190985 | 0.61 | 0.26 | -0.54 | -0.62 |
| CG14260 | SID104194547 | 1.19 | 0.02 | -0.72 | -1.78 |
| CG12659 | SID104197654 | -0.21 | 0.85 | 0.21 | 0.47 |
| pch2 (pachytene checkpoint 2) | SID104194160 | -0.36 | 0.09 | -0.76 | -0.2 |

The listing, from the first entry:
| target gene | PubChem SID | replicate 1, z-score of dpERK with insulin | replicate 2, z-score of dpERK with insulin | replicate 1, z-score of dpERK under basal conditions | replicate 1, z-score of ERK-YFP with insulin |
| --- | --- | --- | --- | --- | --- |
| Syx17 (Syntaxin 17) | SID104188383 | 0.27 | 0.91 | -0.01 | 0.14 |
| CG3529 | SID104190161 | 0.42 | 0.82 | -0.2 | -0.09 |
| Hsp67Bc (Heat shock gene 67Bc) | SID104190985 | 0.61 | 0.26 | -0.54 | -0.62 |
| CG14260 | SID104194547 | 1.19 | 0.02 | -0.72 | -1.78 |
| CG12659 | SID104197654 | -0.21 | 0.85 | 0.21 | 0.47 |
| pch2 (pachytene checkpoint 2) | SID104194160 | -0.36 | 0.09 | -0.76 | -0.2 |
| CG13226 | SID104186138 | -0.01 | -0.47 | 0.48 | 0.16 |
| CG13282 | SID104182046 | -0.22 | -0.19 | -0.19 | 0.38 |
| CG16743 | SID104182306 | 0.28 | 0.33 | 1.13 | 0.19 |
| CG30457 | SID104186453 | 1.47 | 0.65 | 0.36 | 0.3 |
| CG45002 | SID104199936 | 0.11 | 0.47 | 0.26 | -0.19 |
| CG13965 | SID104182099 | -0.26 | 0.3 | 0.44 | -0.4 |
| CG33922 | SID104179842 | 0.22 | -0.2 | -1.02 | 0.42 |
| Elp4 (Elongator complex protein 4) | SID104182791 | -5.77 | -5.57 | 1.76 | -0.85 |
| stai (stathmin) | SID104182712 | 0.67 | -0.04 | 0.02 | -0.57 |
| stai (stathmin) | SID104201762 | -0.01 | -0.34 | -1.1 | 1.75 |
| CG43153 | SID104180981 | 0.55 | 0.31 | 0.4 | -0.08 |
| lncRNA:CR40629 (long non-coding RNA:CR40629) | SID104200751 | -1 | -0.02 | 0.37 | 1.07 |
| Ten-m (Tenascin major) | SID104191456 | -0.1 | -0.76 | -0.09 | 1.06 |
| Ten-m (Tenascin major) | SID104191674 | 0.01 | -0.2 | 0.11 | 0.62 |
| CG33223 | SID104197364 | -0.65 | -0.52 | -0.65 | -1.43 |
| bap (bagpipe) | SID104196700 | 0.52 | 0.19 | 0.54 | -0.01 |
| CG10581 | SID104191415 | -0.4 | 0.04 | -0.15 | 0.09 |
| Mur11Da (Mucin related 11Da) | SID104198752 | 1.05 | 1.13 | 1.21 | 0.14 |
| CG31115 | SID104193484 | 0.79 | 0.17 | 1.95 | 0.12 |
| CG6996 | SID104190550 | 0.7 | -0.43 | -0.94 | -0.25 |
| veil | SID104186684 | 0.27 | -0.45 | -0.37 | -0.28 |
| Antdh (Antennal dehydrogenase) | SID104200099 | 0 | 0 | 0.75 | -0.36 |
| CG7691 | SID104196079 | 0.48 | -0.52 | -0.1 | -0.06 |
| Sara (Smad anchor for receptor activation) | SID104184445 | -0.22 | 0.33 | 0.82 | 0.58 |
| CG34278 | SID104193000 | -0.52 | -0.16 | 0.53 | 0.25 |
| CG32022 | SID104189470 | 0.86 | 1.63 | 0.7 | 0.05 |
| CG42613 | SID104193124 | 0.65 | 2.26 | -0.99 | -0.46 |
| CG42613 | SID104194561 | -1.68 | 0.95 | 2.15 | 0.38 |
| CG42613 | SID104195594 | 0.44 | -0.85 | 0.32 | -1.11 |
| CG42613 | SID104202027 | 0.42 | 0.49 | -0.3 | 0.88 |
| CG9400 | SID104199974 | -0.35 | -0.25 | -0.26 | -0.29 |
| CR18275 (pseudo) | SID104197943 | 1.36 | 0 | -0.64 | -0.36 |
| wun (wunen) | SID104187511 | -0.1 | 0.42 | -0.64 | -0.03 |
| CG4631 | SID104182558 | 0.33 | -0.07 | 1.38 | 0.72 |
| CG4631 | SID104201733 | 0.2 | 1.22 | -0.63 | -1.01 |
| CG17167 | SID104200694 | -0.14 | 0.01 | 0.82 | 0.43 |
| CG17167 | SID104200695 | -1.32 | -0.61 | 1.86 | -0.44 |
| CG15734 | SID104199493 | 0.66 | 0.03 | -0.35 | -0.2 |
| Cndp2 (Cytosolic non-specific dipeptidase 2) | SID104184665 | -0.06 | -0.8 | -0.32 | 0.2 |
| CG33454 | SID104202272 | -2.64 | 0.56 | -0.35 | -1.49 |
| lncRNA:CR32657 (long non-coding RNA:CR32657) | SID104199195 | -0.55 | -0.77 | -0.07 | 0.79 |
| dhd (deadhead) | SID104198553 | 1.16 | 0.42 | 0.28 | -0.19 |
| CG15894 | SID104197890 | 0.68 | -0.13 | 0 | 0.16 |
| CG15894 | SID104197891 | -3.36 | -2.33 | -2.05 | 1.98 |
| pix (pixie) | SID104190325 | 0.47 | -0.03 | -1.56 | -1.87 |
| 140up (upstream of RpII140) | SID104192426 | -0.22 | -0.07 | 0.09 | 0.75 |
| kra (krasavietz) | SID104192112 | -3.31 | -3.09 | 0.91 | 2.89 |
| bmm (brummer) | SID104190294 | 0.14 | 0.71 | – | 0.21 |
| CG15093 | SID104186314 | 0.74 | 0.48 | 0.62 | -0.08 |
| CG12682 | SID104197665 | 0.11 | -0.03 | 0.46 | 0.36 |
| CG31213 | SID104194104 | -0.07 | 0.24 | 0.42 | 0.62 |
| CG31213 | SID104195439 | -0.58 | 0.44 | 0.16 | 0.8 |
